{"source": "paper PMC5095148", "key": {"[1]": {"biological_target": "CSN7A (COP9 signalosome subunit 7A), endogenous (human (endogenous in LiSa‐2)) (UniProt Q9UBW8)", "assay": "co-IP; endogenous CSN complexes immunoprecipitated from LiSa‐2 cell lysates with specific anti‐CSN7A or anti‐CSN7B antibodies (Santa Cruz); western blotting of the precipitates"}, "Flag‐CSN7A (human)": {"biological_target": "Flag‐CSN7A (human) (UniProt Q9UBW8)", "assay": "pull-down; Flag‐pulldown: lysates of Flag‐CSN7A‐LiSa‐2 or Flag‐CSN7B‐LiSa‐2 cells on an ANTI‐FLAG M2 affinity column, washed with 20 column volumes of 1× TBS (50 mM Tris‐HCl, pH 7.4, 150 mM NaCl, 1 mM EDTA), eluted with Flag peptide (100 μg/mL); western blotting of the eluate"}}, "note": "These are yes or no findings as the source states them, for the method shown. Binding seen in cells or lysates may run through a third protein. Binding can be weak; no strength is given. For some assays here: Where a sequence is shown, tags or fusion partners need not be part of it."}
{"substance": "F‐box protein β‐TrCP (human (endogenous in LiSa‐2))", "values": [{"measurement": "binding", "setting": "[1]", "result": "binds"}, {"measurement": "binding", "setting": "Flag‐CSN7A (human)", "result": "binds"}]}
